Measurements reported in patent US7906486B2, “Method of treating or preventing tissue deterioration, injury or damage due to disease of mucosa” (SciClone Pharmaceuticals, Inc., priority 2007, dated 2011).
Values joined by “and” are separate entries in the source; they are usually repeats but may differ in a detail not shown here. Equal values may be shown once. Further values from the same series stand in other lists.

Assay: Weights and survival (Example 3, SCI-03)
Format: in vivo, Syrian Golden Hamsters
Conditions: individual animals
Method: All animals were weighed daily and their survival recorded, in order to assess possible differences in animal weight among treatment groups as an indication for mucositis severity and/or possible toxicity resulting from the treatments.
There were no significant differences in weight changes between study groups. The mean daily percent weight change data was evaluated. The saline treated control hamsters gained an average of 76.3% of their starting weight during the study. Hamsters in the group receiving SCV-07 at 100 μg/kg on days −1 to 29 gained an average of 80.7% of their starting weight during the study. Hamsters in the group receiving SCV-07 at 100 μg/kg on days of radiation only gained an average of 66.3% of their starting weight during the study. Hamsters in the group receiving SCV-07 at 100 μg/kg on day −1, day 4, day 5 and days 10-29 gained an average of 69.7% of their starting weight during the study. The significance of these differences was evaluated by calculating the area-under-the-curve (AUC) for the weight gain of each animal, and then comparing the different treatment groups using a One-Way ANOVA test.

## N[C@H](CCC(=O)N[C@@H](Cc1c[nH]c2ccccc12)C(=O)O)C(=O)O [SCV-07, γ-D-glutamyl-L-tryptophan]
Group 2 (SCV-07 day −1 to day 29), day 0
  Animal weight: 86 and 82 (2×) and 84 and 77 (2×) and 87 (2×) and 85 and 70
Group 2 (SCV-07 day −1 to day 29), day 1
  Animal weight: 89 (2×) and 82 and 84 and 76 (2×) and 88 and 83 and 87 and 74
Group 2 (SCV-07 day −1 to day 29), day 2
  Animal weight: 78 and 83 and 87 (2×) and 79 and 92 and 91 and 80 and 88 and 76
Group 2 (SCV-07 day −1 to day 29), day 3
  Animal weight: 77 and 86 and 88 (2×) and 79 (2×) and 95 and 94 and 90 and 75
Group 2 (SCV-07 day −1 to day 29), day 4
  Animal weight: 80 and 85 and 88 and 82 and 95 and 93 and 87 and 79 and 91 and 76
Group 2 (SCV-07 day −1 to day 29), day 5
  Animal weight: 83 and 88 and 92 and 84 (2×) and 98 and 97 and 91 and 94 and 79
Group 2 (SCV-07 day −1 to day 29), day 6
  Animal weight: 88 and 92 and 94 and 87 and 102 (2×) and 95 and 86 and 98 and 79
Group 2 (SCV-07 day −1 to day 29), day 7
  Animal weight: 88 and 91 and 93 (2×) and 87 and 102 and 99 and 85 and 100 and 84
Group 2 (SCV-07 day −1 to day 29), day 8
  Animal weight: 89 and 90 and 94 and 87 (2×) and 103 and 99 and 95 and 98 and 84
Group 2 (SCV-07 day −1 to day 29), day 9
  Animal weight: 94.5 and 93.4 and 98.3 and 90.6 and 108.5 and 103.5 and 99.7 and 88.2 and 102.3 and 88.6
Group 2 (SCV-07 day −1 to day 29), day 10
  Animal weight: 95 and 92 (3×) and 100 and 108 and 105 and 97 and 104 and 90
Group 2 (SCV-07 day −1 to day 29), day 11
  Animal weight: 98 and 95 and 99 and 96 and 110 and 107 and 101 and 92 and 104 and 94
Group 2 (SCV-07 day −1 to day 29), day 12
  Animal weight: 100 and 96 and 103 and 97 (2×) and 114 and 111 and 104 and 95 and 107
Group 2 (SCV-07 day −1 to day 29), day 13
  Animal weight: 103 and 97 (2×) and 104 and 115 and 111 and 106 and 94 and 108 and 98
Group 2 (SCV-07 day −1 to day 29), day 14
  Animal weight: 104 and 96 and 106 and 98 (2×) and 116 and 109 and 105 and 95 and 108
Group 2 (SCV-07 day −1 to day 29), day 15
  Animal weight: 104 and 97 and 105 and 99 and 117 and 108 (2×) and 107 and 94 and 98
Group 2 (SCV-07 day −1 to day 29), day 16
  Animal weight: 105 and 99 (3×) and 107 and 117 and 109 and 106 and 96 and 111
Group 2 (SCV-07 day −1 to day 29), day 17
  Animal weight: 108 (2×) and 100 and 101 and 120 and 111 and 107 and 97 and 110 and 103
Group 2 (SCV-07 day −1 to day 29), day 18
  Animal weight: 108 and 98 (2×) and 109 and 103 and 120 and 113 (2×) and 118 and 106
Group 2 (SCV-07 day −1 to day 29), day 19
  Animal weight: 113 and 104 and 114 and 107 and 124 and 116 and 122 and 102 and 115 and 108
Group 2 (SCV-07 day −1 to day 29), day 20
  Animal weight: 114 and 105 and 116 (2×) and 109 and 126 and 117 and 121 and 103 and 111
Group 2 (SCV-07 day −1 to day 29), day 21
  Animal weight: 116 and 107 and 117 and 110 and 127 and 122 and 126 and 104 and 119 and 118
Group 2 (SCV-07 day −1 to day 29), day 22
  Animal weight: 117 (2×) and 108 and 119 and 112 and 127 (2×) and 123 and 105 and 120
Group 2 (SCV-07 day −1 to day 29), day 23
  Animal weight: 120 (3×) and 111 and 114 and 130 (2×) and 126 and 108 and 118
Group 2 (SCV-07 day −1 to day 29), day 24
  Animal weight: 122 and 113 and 124 and 116 and 132 and 128 and 130 and 111 and 123 and 120
Group 2 (SCV-07 day −1 to day 29), day 25
  Animal weight: 123 and 113 and 124 and 117 and 132 (2×) and 128 and 110 and 126 and 121
Group 2 (SCV-07 day −1 to day 29), day 26
  Animal weight: 129 (3×) and 117 and 121 and 137 and 132 and 136 and 114 and 124
Group 2 (SCV-07 day −1 to day 29), day 27
  Animal weight: 131 and 116 and 130 (2×) and 124 and 138 and 133 and 137 and 115 and 126
Group 2 (SCV-07 day −1 to day 29), day 28
  Animal weight: 134 and 118 and 130 and 124 and 139 and 135 and 140 and 114 and 133 and 131
Group 2 (SCV-07 day −1 to day 29), day 29
  Animal weight: 132 and 118 and 130 and 123 and 139 and 134 and 140 and 114 and 133 and 127
Group 2 (SCV-07 day −1 to day 29), day 30
  Animal weight: 136 and 122 and 137 (2×) and 128 and 142 and 138 and 144 and 120 and 133
Group 2 (SCV-07 day −1 to day 29), day 31
  Animal weight: 138 (3×) and 124 and 131 and 143 and 142 and 146 and 121 and 139
Group 2 (SCV-07 day −1 to day 29), day 32
  Animal weight: 141 (2×) and 126 and 120 and 143 and 142 and 147 and 122 and 139 and 138
Group 2 (SCV-07 day −1 to day 29), day 33
  Animal weight: 146 and 131 and 136 and 145 and 147 and 148 and 152 and 125 and 144 (2×)
Group 2 (SCV-07 day −1 to day 29), day 34
  Animal weight: 145 (2×) and 130 and 136 and 146 (2×) and 147 (2×) and 153 and 125
Group 2 (SCV-07 day −1 to day 29), day 35
  Animal weight: 146 (2×) and 131 and 136 and 145 and 147 (2×) and 148 and 154 and 127
Group 2 (SCV-07 day −1 to day 29), day −1
  Animal weight: 82 (3×) and 80 and 73 and 83 and 81 and 76 and 84 and 69
Group 3 (SCV-07 on days of radiation 0-3 and 6-9), day 0
  Animal weight: 92 and 78 and 98 and 82 (2×) and 84 and 89 and 87 and 79 and 76
Group 3 (SCV-07 on days of radiation 0-3 and 6-9), day 1
  Animal weight: 92 and 79 (2×) and 95 and 82 and 86 and 87 and 83 and 78 and 73
Group 3 (SCV-07 on days of radiation 0-3 and 6-9), day 2
  Animal weight: 97 and 80 (2×) and 102 and 85 and 88 (2×) and 84 and 81 and 74
Group 3 (SCV-07 on days of radiation 0-3 and 6-9), day 3
  Animal weight: 94 and 80 and 104 and 82 and 84 and 86 and 89 and 88 and 83 and 76
Group 3 (SCV-07 on days of radiation 0-3 and 6-9), day 4
  Animal weight: 95 and 82 and 102 and 81 and 86 (2×) and 88 and 85 and 83 and 74
Group 3 (SCV-07 on days of radiation 0-3 and 6-9), day 5
  Animal weight: 100 and 85 (2×) and 108 and 88 (2×) and 89 and 93 and 87 and 77
Group 3 (SCV-07 on days of radiation 0-3 and 6-9), day 6
  Animal weight: 104 and 89 (2×) and 111 and 88 and 90 and 91 and 97 and 94 and 78
Group 3 (SCV-07 on days of radiation 0-3 and 6-9), day 7
  Animal weight: 106 and 90 (2×) and 115 and 89 (2×) and 91 and 97 and 93 and 78
Group 3 (SCV-07 on days of radiation 0-3 and 6-9), day 8
  Animal weight: 103 and 88 (3×) and 113 and 93 and 90 and 97 and 94 and 78
Group 3 (SCV-07 on days of radiation 0-3 and 6-9), day 9
  Animal weight: 110.6 and 94.6 and 117.4 and 92.6 and 94.4 and 93.7 and 101.7 and 97.5 and 91.6 and 79.2
Group 3 (SCV-07 on days of radiation 0-3 and 6-9), day 10
  Animal weight: 111 and 95 (2×) and 119 and 93 and 96 and 103 and 98 and 94 and 80
Group 3 (SCV-07 on days of radiation 0-3 and 6-9), day 11
  Animal weight: 112 and 96 and 122 and 95 and 99 (2×) and 97 and 104 and 94 and 81
Group 3 (SCV-07 on days of radiation 0-3 and 6-9), day 12
  Animal weight: 102 and 110 and 125 and 97 and 101 and 98 and 103 and 99 and 96 and 84
Group 3 (SCV-07 on days of radiation 0-3 and 6-9), day 13
  Animal weight: 114 and 101 (2×) and 124 and 98 and 103 and 109 and 105 and 96 and 84
Group 3 (SCV-07 on days of radiation 0-3 and 6-9), day 14
  Animal weight: 113 and 100 (3×) and 125 and 99 and 112 and 103 and 97 and 84
Group 3 (SCV-07 on days of radiation 0-3 and 6-9), day 15
  Animal weight: 112 and 100 and 126 and 97 and 102 and 101 and 111 and 105 and 96 and 82
Group 3 (SCV-07 on days of radiation 0-3 and 6-9), day 16
  Animal weight: 113 (2×) and 103 and 129 and 97 and 101 and 100 and 106 and 99 and 85
Group 3 (SCV-07 on days of radiation 0-3 and 6-9), day 17
  Animal weight: 118 and 106 (2×) and 132 and 100 and 104 and 101 and 115 and 102 and 86
